# Test results as given in the supplement of paper PMC8728848.
# The list shows a part of the results.
# B1: HopZSSI-T (Helicobacter pylori), B5Z6D0 (protein)
# chain: MGSSHHHHHHSSGLVPRGSHMENLYFQGEDNGFFISAGYQIGEAAQMVKNTGELKKLSDTYENLSNLLTNFNNLNQAVTNASSPSEINAAIDNLKANTQGLTGEKTNSPAYQAVYLALNAAVGLWNVIAYNVQCGPGNSSQQSVTFEGQPGHNSSSINCNLTGYNNGVSGPLSIDNFKQLNQAYQVLQQALKQGVPVLNNTNQKIEVKVTTQTNGQSSKETTTTTTTNDAQTLLQEASKMIDVLTTNCPWVNHNPGQNGGAPWGLIRQECVSGFATEFSAVTSMIKNAQEIVTQAQSLNANQNNQNAPQDFNPYTSADRAFAQNMLNHAQAQAKILELADQMKKDLNTIPSQFITNYLAACRIDGTTPSQGVTNNTWGAGCAYVEETITALNNSLAHFGTQAEQIKQSELLARTILDFRGSLSTLNSTYNSITTTASNTPNSPFLKNLISQSTNPNNPGGLQAVYQVNQSAYSQLLSATQELGHNPFRRIGLISSQT
# Key:
# Test in all cases: glycan array binding signal (z-score within array); higher = stronger binding
# Settings in all cases: glycan notation: IUPAC condensed, linker removed
# [1] = target: Gal(b1-4)GlcNAc(b1-6)GalNAc
# Outline: (§1)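 Columns mapping to the same glycan were averaged after glycan names were converted to IUPAC-condensed notation. The data come from 3228 arrays in the Consortium for Functional Glycomics database, limited to those with an available protein sequence. Binding is reported as a within-array Z-score averaged across arrays of one protein sequence and across linkers.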
# [2] = target: Gal(b1-4)GlcNAc(b1-6)[Gal(b1-3)]GalNAc
# Outline: as §1
# [3] = target: Gal(b1-4)GlcNAc(b1-6)[Gal(b1-4)GlcNAc(b1-3)]GalNAc
# Outline: as §1
# [4] = target: Gal(b1-4)GlcNAc6P
# Outline: as §1
# [5] = target: Gal(b1-6)Gal
# Outline: as §1
# [6] = target: Gal3S(b1-3)GalNAc
# Outline: as §1
# [7] = target: Gal3S(b1-3)GlcNAc
# Outline: as §1
# [8] = target: Gal3S(b1-3)[Fuc(a1-4)]GlcNAc
# Outline: as §1
# [9] = target: Gal3S(b1-4)Glc
# Outline: as §1
# [10] = target: Gal3S(b1-4)Glc6S
# Outline: as §1
# [11] = target: Gal3S(b1-4)GlcNAc
# Outline: as §1
# [12] = target: Gal3S(b1-4)[Fuc(a1-3)]Glc6S
# Outline: as §1
# [13] = target: Gal3S(b1-4)[Fuc(a1-3)]GlcNAc
# Outline: as §1
# [14] = target: Gal3S(b1-4)[Fuc(a1-3)]GlcNAc6S
# Outline: as §1
# [15] = target: Gal3S4S(b1-4)GlcNAc
# Outline: as §1
# [16] = target: Gal3S6S(b1-4)GlcNAc
# Outline: as §1
# [17] = target: Gal3S6S(b1-4)GlcNAc6S
# Outline: as §1
# [18] = target: Gal4S(b1-4)GlcNAc
# Outline: as §1
# [19] = target: Gal4S6S(b1-4)GlcNAc
# Outline: as §1
# [20] = target: Gal6P(b1-4)GlcNAc
# Outline: as §1
# [21] = target: Gal6S(b1-3)GlcNAc
# Outline: as §1
# [22] = target: Gal6S(b1-3)GlcNAc6S
# Outline: as §1
# [23] = target: Gal6S(b1-4)Glc
# Outline: as §1
# [24] = target: Gal6S(b1-4)Glc6S
# Outline: as §1
# [25] = target: Gal6S(b1-4)GlcNAc
# Outline: as §1
# [26] = target: Gal6S(b1-4)GlcNAc6S
# Outline: as §1
# [27] = target: GalNAc(a1-3)Gal
# Outline: as §1
# [28] = target: GalNAc(a1-3)GalNAc
# Outline: as §1
# [29] = target: GalNAc(a1-3)GalNAc(a1-3)Gal(a1-4)Gal(b1-4)GlcNAc
# Outline: as §1
# [30] = target: GalNAc(a1-3)GalNAc(b1-3)Gal(a1-4)Gal(b1-4)Glc
# Outline: as §1
# [31] = target: GalNAc(b1-3)Gal
# Outline: as §1
# [32] = target: GalNAc(b1-3)Gal(a1-4)Gal(b1-4)GlcNAc
# Outline: as §1
# [33] = target: GalNAc(b1-3)Gal(a1-4)Gal(b1-4)GlcNAc(b1-3)Gal(b1-4)Glc
# Outline: as §1
# [34] = target: GalNAc(b1-3)Gal(a1-6)Gal(b1-4)Glc
# Outline: as §1
# [35] = target: GalNAc(b1-3)GalNAc
# Outline: as §1
# [36] = target: GalNAc(b1-3)GlcNAc
# Outline: as §1
# [37] = target: GalNAc(b1-4)Gal(b1-4)Glc
# Outline: as §1
# [38] = target: GalNAc(b1-4)GlcNAc
# Outline: as §1
binder,measurement,setting,value
B1,glycan array binding signal (z-score),[1],1.25
same,glycan array binding signal (z-score),[2],-0.512
same,glycan array binding signal (z-score),[3],-0.032
same,glycan array binding signal (z-score),[4],0.335
same,glycan array binding signal (z-score),[5],-0.78
same,glycan array binding signal (z-score),[6],0.474
same,glycan array binding signal (z-score),[7],-0.166
same,glycan array binding signal (z-score),[8],-0.455
same,glycan array binding signal (z-score),[9],-0.329
same,glycan array binding signal (z-score),[10],0.411
same,glycan array binding signal (z-score),[11],0.105
same,glycan array binding signal (z-score),[12],0.347
same,glycan array binding signal (z-score),[13],0.637
same,glycan array binding signal (z-score),[14],-0.409
same,glycan array binding signal (z-score),[15],-0.342
same,glycan array binding signal (z-score),[16],0.269
same,glycan array binding signal (z-score),[17],0.286
same,glycan array binding signal (z-score),[18],-0.151
same,glycan array binding signal (z-score),[19],-0.807
same,glycan array binding signal (z-score),[20],0.331
same,glycan array binding signal (z-score),[21],-0.358
same,glycan array binding signal (z-score),[22],-0.343
same,glycan array binding signal (z-score),[23],0.116
same,glycan array binding signal (z-score),[24],-0.2
same,glycan array binding signal (z-score),[25],-0.54
same,glycan array binding signal (z-score),[26],-0.115
same,glycan array binding signal (z-score),[27],-0.614
same,glycan array binding signal (z-score),[28],-0.111
same,glycan array binding signal (z-score),[29],0.199
same,glycan array binding signal (z-score),[30],-0.104
same,glycan array binding signal (z-score),[31],-0.269
same,glycan array binding signal (z-score),[32],0.351
same,glycan array binding signal (z-score),[33],0.07
same,glycan array binding signal (z-score),[34],-0.001
same,glycan array binding signal (z-score),[35],-0.395
same,glycan array binding signal (z-score),[36],0.689
same,glycan array binding signal (z-score),[37],-0.288
same,glycan array binding signal (z-score),[38],2.32

# Reformatted as tab-separated lines: entries from further up.
binder	measurement	setting	value
B1	glycan array binding signal (z-score)	[37]	-0.288
same	glycan array binding signal (z-score)	[38]	2.32
